Test results taken from PMC9366055.
Results are given in words; binding and its absence hold for the method and conditions named. For part of these data: Binding can be weak; no strength is given. For part of these data: Binding seen in cells or lysates may run through a third protein. For part of these data: Where a sequence is shown, tags or fusion partners need not be part of it.

Columns and labels:
[1] = biological target: T1, GST-HpaA (X. euvesicatoria) (UniProt Q9WWF9); assay: pull-down; GST or GST fusion from E. coli BL21 (DE3) lysate immobilised on glutathione sepharose, washed, incubated with a bacterial lysate containing the c-Myc-tagged partner for 2 h at 4°C; eluted with Laemmli buffer; immunoblot with c-Myc- and GST-specific antibodies; only the target purified
T1 sequence: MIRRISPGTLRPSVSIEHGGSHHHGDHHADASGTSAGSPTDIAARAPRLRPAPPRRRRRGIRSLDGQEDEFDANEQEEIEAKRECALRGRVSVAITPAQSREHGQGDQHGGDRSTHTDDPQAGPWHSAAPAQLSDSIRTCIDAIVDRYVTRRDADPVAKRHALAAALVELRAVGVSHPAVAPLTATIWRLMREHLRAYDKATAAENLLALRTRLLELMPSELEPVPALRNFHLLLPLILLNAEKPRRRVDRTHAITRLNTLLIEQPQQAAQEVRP

[2] = biological target: T2, HpaA-c-Myc (expressed in X. euvesicatoria strain 85*) (X. euvesicatoria strain 85-10) (UniProt Q9WWF9); assay: co-IP; lysate of X. euvesicatoria strain 85* with or without HpaA-c-Myc, grown under T3S-permissive conditions (MA pH 5.3), PBS with 0.1% Nonidet-P40; anti-c-Myc antibody and protein G agarose over night at 4°C; immunoblot with c-Myc- and HrcN-specific antibodies
T2 sequence: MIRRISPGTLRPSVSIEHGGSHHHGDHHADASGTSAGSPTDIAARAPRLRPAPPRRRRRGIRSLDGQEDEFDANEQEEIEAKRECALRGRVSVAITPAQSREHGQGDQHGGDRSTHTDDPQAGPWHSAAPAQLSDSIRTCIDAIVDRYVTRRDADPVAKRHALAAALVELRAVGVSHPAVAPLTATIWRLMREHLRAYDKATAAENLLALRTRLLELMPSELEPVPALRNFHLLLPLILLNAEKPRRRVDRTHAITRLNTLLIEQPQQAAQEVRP

[3] = biological target: GST-HrcN (X. euvesicatoria); assay: pull-down; GST or GST fusion from E. coli BL21 (DE3) lysate immobilised on glutathione sepharose, washed, incubated with a bacterial lysate containing the c-Myc-tagged partner for 2 h at 4°C; eluted with Laemmli buffer; immunoblot with c-Myc- and GST-specific antibodies; only the target purified
[4] = biological target: GST-HpaC (X. euvesicatoria); assay: as above
[5] = biological target: GST-HrcU (X. euvesicatoria); assay: as above
[6] = biological target: GST-HrcL (X. euvesicatoria); assay: as above
[7] = biological target: HrcUC derivative with C-terminal T18 fusion partner (X. euvesicatoria strain 85-10); assay: two-hybrid; BACTH: T18 and T25 fusions in E. coli BTH101, spotted on LB plates with X-gal and 2 mM IPTG, read after five to 6 days at room temperature
[8] = biological target: T18-HrcN (X. euvesicatoria); assay: as above
[9] = biological target: T18-HrcL (X. euvesicatoria); assay: as above
[10] = biological target: HrcUC derivative with C-terminal T25 fusion partner (X. euvesicatoria strain 85-10); assay: as above

**Q.** For HrcL-c-Myc (X. euvesicatoria), which binding [1] is on record?
**A.** Its binding is “binds”.

**Q.** Which binding [2] does the source give for HrcN (enzyme) here?
**A.** The binding was “binds”.

**Q.** HpaC-c-Myc (X. euvesicatoria) was tested. Which binding [1] did it give?
**A.** Its binding is “binds”.

B1: HpaA-c-Myc (protein, UniProt Q9WWF9 1-275)
chain: MIRRISPGTLRPSVSIEHGGSHHHGDHHADASGTSAGSPTDIAARAPRLRPAPPRRRRRGIRSLDGQEDEFDANEQEEIEAKRECALRGRVSVAITPAQSREHGQGDQHGGDRSTHTDDPQAGPWHSAAPAQLSDSIRTCIDAIVDRYVTRRDADPVAKRHALAAALVELRAVGVSHPAVAPLTATIWRLMREHLRAYDKATAAENLLALRTRLLELMPSELEPVPALRNFHLLLPLILLNAEKPRRRVDRTHAITRLNTLLIEQPQQAAQEVRP
**Q.** How did the binding [3] turn out when B1 was run?
**A.** The binding was “binds”.

**Q.** What about the binding [4] of the same molecule?
**A.** The binding was “binds”.

**Q.** What about the binding [5] of the same molecule?
**A.** The binding was “binds”.

**Q.** What about the binding [6] of the same molecule?
**A.** Its binding is “binds”.

B2: HpaA-T25 (protein, UniProt Q9WWF9 1-275)
chain: MIRRISPGTLRPSVSIEHGGSHHHGDHHADASGTSAGSPTDIAARAPRLRPAPPRRRRRGIRSLDGQEDEFDANEQEEIEAKRECALRGRVSVAITPAQSREHGQGDQHGGDRSTHTDDPQAGPWHSAAPAQLSDSIRTCIDAIVDRYVTRRDADPVAKRHALAAALVELRAVGVSHPAVAPLTATIWRLMREHLRAYDKATAAENLLALRTRLLELMPSELEPVPALRNFHLLLPLILLNAEKPRRRVDRTHAITRLNTLLIEQPQQAAQEVRP
**Q.** How did the binding [7] turn out when B2 was run?
**A.** Its binding is “no binding”.

**Q.** What about the binding [8] of the same molecule?
**A.** Its binding is “binds”.

**Q.** And the binding [9]?
**A.** The binding was “binds weakly”.

B3: HpaA-T18 (protein, UniProt Q9WWF9 1-275)
chain: MIRRISPGTLRPSVSIEHGGSHHHGDHHADASGTSAGSPTDIAARAPRLRPAPPRRRRRGIRSLDGQEDEFDANEQEEIEAKRECALRGRVSVAITPAQSREHGQGDQHGGDRSTHTDDPQAGPWHSAAPAQLSDSIRTCIDAIVDRYVTRRDADPVAKRHALAAALVELRAVGVSHPAVAPLTATIWRLMREHLRAYDKATAAENLLALRTRLLELMPSELEPVPALRNFHLLLPLILLNAEKPRRRVDRTHAITRLNTLLIEQPQQAAQEVRP
**Q.** B3 was tested. Which binding [10] did it give?
**A.** The binding was “no binding”.

B4: T18-HpaA (protein, UniProt Q9WWF9 1-275)
chain: MIRRISPGTLRPSVSIEHGGSHHHGDHHADASGTSAGSPTDIAARAPRLRPAPPRRRRRGIRSLDGQEDEFDANEQEEIEAKRECALRGRVSVAITPAQSREHGQGDQHGGDRSTHTDDPQAGPWHSAAPAQLSDSIRTCIDAIVDRYVTRRDADPVAKRHALAAALVELRAVGVSHPAVAPLTATIWRLMREHLRAYDKATAAENLLALRTRLLELMPSELEPVPALRNFHLLLPLILLNAEKPRRRVDRTHAITRLNTLLIEQPQQAAQEVRP
**Q.** How did the binding [10] turn out when B4 was run?
**A.** The binding was “no binding”.
